Laboratory results reported in the supplement of paper PMC10373366.
Where a name gives a salt, the structure may show the parent alone. This is one part of the list. Repeats are few or missing, and single values can be far off.

What follows are molecules tested on A2780 (assay: cell growth inhibition ratio vs untreated control (CCK8); higher = stronger inhibition of cell viability). Conditions: 10 µM; 48 h.
Experimental: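 Natural product library (Topscience) screened at 10 µM final concentration for 48 h on ovarian cancer A2780 cells and patient-derived ovarian cancer cells (PDC) in 96-well plates; viability read by CCK8 and reported as inhibition ratio (%) relative to untreated control. Single-dose primary screen.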

Question: For `COc1ccc2cc1Oc1ccc(cc1)C[C@H]1c3cc(c(OC)cc3CCN1C)Oc1c(OC)c(OC)cc3c1[C@H](C2)N(C)CC3` [Tetrandrine], which “cell growth inhibition ratio” value is on record?
Answer: The value was 89.4%.

Question: `CN1CCc2cc3c(cc2C(=O)Cc2ccc4c(c2C1)OCO4)OCO3` [Protopine] was tested. Which “cell growth inhibition ratio” value did it give?
Answer: The value was 20.1%.

Question: For `C[C@H](CC[C@@H](O[C@@H]1O[C@H](CO[C@@H]2O[C@H](CO)[C@@H](O)[C@H](O)[C@H]2O)[C@@H](O)[C@H](O)[C@H]1O[C@@H]1O[C@H](CO)[C@@H](O)[C@H](O)[C@H]1O)C(C)(C)O)[C@H]1CC[C@@]2(C)[C@@H]3CC=C4[C@@H](CC[C@H](O[C@@H]5O[C@H](CO[C@@H]6O[C@H](CO)[C@@H](O)[C@H](O)[C@H]6O)[C@@H](O)[C@H](O)[C@H]5O)C4(C)C)[C@]3(C)[C@H](O)C[C@]12C` [Mogroside V], which “cell growth inhibition ratio” value is on record?
Answer: The value was -3.99%.

Question: For `CC(C)C(C)C(O)C(O)C(C)C1CCC2C3COC(=O)C4CC(O)C(O)CC4(C)C3CCC12C` (stereo not given) [Brassinolide], which “cell growth inhibition ratio” value is on record?
Answer: The value was 4.78%.

Question: `C=C1CC[C@@H]2[C@](C)(COC(=O)CCC(=O)O)[C@H](OC(=O)CCC(=O)O)CC[C@@]2(C)[C@@H]1/C=C/C1=CCOC1=O` [Dehydroandrographolide Succinate Potasium Salt] was tested. Which “cell growth inhibition ratio” value did it give?
Answer: The value was 12.8%.

Question: With `CC(C)=CCC[C@](C)(O)[C@H]1CC[C@]2(C)[C@@H]1[C@H](O)C[C@@H]1[C@@]3(C)CC[C@H](O[C@@H]4O[C@H](CO)[C@@H](O)[C@H](O)[C@H]4O[C@@H]4O[C@H](CO)[C@@H](O)[C@H](O)[C@H]4O)C(C)(C)[C@@H]3CC[C@]12C` [Ginsenoside Rg3] as the molecule, how does the “cell growth inhibition ratio” value read?
Answer: Its value is 19.8%.

Question: Which “cell growth inhibition ratio” value does the source give for `C=C(C)[C@@H]1CC[C@]2(C=O)CC[C@]3(C)[C@H](CC[C@@H]4[C@@]5(C)CC[C@H](O)C(C)(C)[C@@H]5CC[C@]43C)[C@@H]12` [Betulinaldehyde] here?
Answer: Its value is 3.86%.

Question: For `O=C1c2c(O)cc(O)cc2OC(c2ccc(O)c(O)c2)C1O` (stereo not given) [Taxifolin (Dihydroquercetin)], which “cell growth inhibition ratio” value is on record?
Answer: The value was -19.2%.

Question: How did the “cell growth inhibition ratio” value turn out when `O=C(CCc1ccc(O)cc1)c1c(O)cc(O)cc1O[C@@H]1O[C@H](CO)[C@@H](O)[C@H](O)[C@H]1O` [Phlorizin] was run?
Answer: The value was 6.3%.

Question: Which “cell growth inhibition ratio” value does the source give for `O=C(/C=C/c1ccc(O)cc1)c1ccc(O)cc1O` [Isoliquiritigenin] here?
Answer: Its value is -45.9%.

Question: Which “cell growth inhibition ratio” value does the source give for `COc1c2ccoc2cc2oc(=O)ccc12` [Bergapten] here?
Answer: Its value is 11.6%.

Question: How did the “cell growth inhibition ratio” value turn out when `CC1(C)[C@@H](O[C@H]2O[C@H](C(=O)O)[C@@H](O)[C@H](O)[C@H]2O[C@@H]2O[C@H](C(=O)O)[C@@H](O)[C@H](O)[C@H]2O)CC[C@]2(C)[C@H]3C(=O)C=C4[C@@H]5C[C@@](C)(C(=O)O)CC[C@]5(C)CC[C@@]4(C)[C@]3(C)CC[C@@H]12` [Monoammonium glycyrrhizinate] was run?
Answer: Its value is 18.3%.

Question: Which “cell growth inhibition ratio” value does the source give for `CC1(C)CC[C@]2(C(=O)O[C@@H]3O[C@H](CO[C@@H]4O[C@H](CO)[C@@H](O)[C@H](O)[C@H]4O)[C@@H](O)[C@H](O)[C@H]3O)CC[C@]3(C)C(=CC[C@@H]4[C@@]5(C)CC[C@H](O[C@@H]6OC[C@H](O)[C@H](O)[C@H]6O)[C@@](C)(CO)[C@@H]5CC[C@]43C)[C@@H]2C1` [Asperosaponin Ⅵ] here?
Answer: The value was 25.7%.

Question: Which “cell growth inhibition ratio” value does the source give for `O=C(O)[C@H]1O[C@@H](Oc2cc3oc(-c4ccc(O)cc4)cc(=O)c3c(O)c2O)[C@H](O)[C@@H](O)[C@@H]1O` [Breviscapin] here?
Answer: The value was 14%.

Question: How did the “cell growth inhibition ratio” value turn out when `COC(=O)[C@@H]1[C@H]2C[C@H]3c4[nH]c5ccccc5c4CCN3C[C@@H]2CC[C@@H]1O` [Yohimbine hydrochloride] was run?
Answer: Its value is -1.45%.

Question: With `COC(=O)C1=CO[C@@H](O[C@@H]2O[C@H](CO)[C@@H](O)[C@H](O)[C@H]2O)[C@@H]2C(CO)=CC[C@H]12` [Geniposide] as the molecule, how does the “cell growth inhibition ratio” value read?
Answer: Its value is 8.13%.

Question: For `C[C@H](O)[C@H](O)[C@@H](O)[C@@H](O)C=O` [L-Rhamnose monohydrate], which “cell growth inhibition ratio” value is on record?
Answer: Its value is 2.37%.

Question: How did the “cell growth inhibition ratio” value turn out when `COC(=O)Nc1nc2cc(C(=O)c3cccs3)ccc2[nH]1` [Nocodazole] was run?
Answer: Its value is 84.8%.

Question: For `CC(C)=CCC[C@](C)(O[C@@H]1O[C@H](CO)[C@@H](O)[C@H](O)[C@H]1O)[C@H]1CC[C@]2(C)[C@@H]1[C@H](O)C[C@@H]1[C@@]3(C)CC[C@H](O)C(C)(C)[C@@H]3[C@@H](O[C@@H]3O[C@H](CO)[C@@H](O)[C@H](O)[C@H]3O[C@@H]3O[C@@H](C)[C@H](O)[C@@H](O)[C@H]3O)C[C@]12C` [Ginsenoside Re], which “cell growth inhibition ratio” value is on record?
Answer: Its value is 6.23%.

Question: For `CCC(=O)O[C@]1(C(=O)CO)CC[C@H]2[C@@H]3CCC4=CC(=O)CC[C@]4(C)[C@H]3CC[C@@]21C` [17 alpha-propionate], which “cell growth inhibition ratio” value is on record?
Answer: Its value is 18.8%.

Question: With `OC[C@H]1O[C@@H](Oc2ccc(O)cc2)[C@H](O)[C@@H](O)[C@@H]1O` [Arbutin] as the molecule, how does the “cell growth inhibition ratio” value read?
Answer: The value was -10.2%.

Question: For `C[C@@H]1O[C@@H](O[C@H]2[C@H](Oc3cc(O)c4c(=O)cc(-c5ccc(O)cc5)oc4c3)O[C@H](CO)[C@@H](O)[C@@H]2O)[C@H](O)[C@H](O)[C@H]1O` [Rhoifolin], which “cell growth inhibition ratio” value is on record?
Answer: The value was -4.75%.

Question: With `C=C1CC23CCC4C(C)(C(=O)OC5OC(CO)C(O)C(O)C5O)CCCC4(C)C2CCC1(OC1OC(CO)C(O)C(OC2OC(CO)C(O)C(O)C2O)C1OC1OC(C)C(O)C(O)C1O)C3` (stereo not given) [Dulcoside B] as the molecule, how does the “cell growth inhibition ratio” value read?
Answer: The value was 0.311%.

Question: With `CC1(C)OC(=O)C=C[C@]2(C)[C@H]3CC[C@@]4(C)[C@H](c5ccoc5)OC(=O)[C@H]5O[C@]54[C@]3(C)C(=O)C[C@@H]12` [Obacunone] as the molecule, how does the “cell growth inhibition ratio” value read?
Answer: The value was -7.63%.

Question: `CC(=O)Oc1cc(C)c(OC(C)=O)c2ccccc12` [Menadiol Diacetate] was tested. Which “cell growth inhibition ratio” value did it give?
Answer: The value was 10.7%.

Question: With `C1CCN2C[C@@H]3C[C@@H](CN4CCCC[C@@H]34)[C@H]2C1` [(-)-Sparteine sulfate pentahydrate] as the molecule, how does the “cell growth inhibition ratio” value read?
Answer: The value was 7.7%.

Question: With `CC[C@H]1OC(=O)[C@H](C)[C@@H](O[C@H]2C[C@@](C)(OC)[C@@H](O)[C@H](C)O2)[C@H](C)[C@@H](O[C@@H]2O[C@H](C)C[C@H](N(C)C)[C@H]2O)[C@](C)(O)C[C@@H](C)[C@@H]2N[C@@H](COCCOC)O[C@H]([C@H]2C)[C@]1(C)O` [Dirithromycin] as the molecule, how does the “cell growth inhibition ratio” value read?
Answer: The value was 1.86%.

Question: For `COc1cc(C=O)ccc1OC(C)=O` [Acetylvanillin], which “cell growth inhibition ratio” value is on record?
Answer: The value was -3.41%.

Question: Which “cell growth inhibition ratio” value does the source give for `CCCCCCCCCCCC1=C(O)C(=O)C=C(O)C1=O` [Embelin] here?
Answer: The value was 10.6%.

Question: `O=C(CCc1ccc(O)cc1)c1c(O)cc(O)cc1O` [Phloretin] was tested. Which “cell growth inhibition ratio” value did it give?
Answer: The value was 4.26%.

Question: For `COc1ccc(C2CC(=O)c3c(O)cc(OC4OC(COC5OC(C)C(O)C(O)C5O)C(O)C(O)C4O)cc3O2)cc1OC` (stereo not given) [Methyl hesperidin], which “cell growth inhibition ratio” value is on record?
Answer: Its value is 6.47%.

Question: Which “cell growth inhibition ratio” value does the source give for `O=C1O[C@H]([C@@H](O)CO)C(O)=C1O` [L(+)-Ascorbic acid] here?
Answer: The value was 10.7%.

Question: Which “cell growth inhibition ratio” value does the source give for `Cc1cc(=O)oc2cc(O)ccc12` [4-Methylumbelliferone (4-MU)] here?
Answer: The value was 13.6%.

Question: `COc1cc2c(cc1O)[C@@H](Cc1ccc(Oc3cc(C[C@H]4c5cc(O)c(OC)cc5CCN4C)ccc3O)cc1)N(C)CC2` [magnolin] was tested. Which “cell growth inhibition ratio” value did it give?
Answer: Its value is 13.8%.

Question: `COc1cc(C(=S)N2CCOCC2)ccc1O` [Vanitiolide] was tested. Which “cell growth inhibition ratio” value did it give?
Answer: The value was 5.4%.

Question: How did the “cell growth inhibition ratio” value turn out when `c1ccc2c(Cc3c[nH]c4ccccc34)c[nH]c2c1` [3,3'-Diindolylmethane] was run?
Answer: The value was -6.17%.

Question: `CC[C@H]1OC(=O)C[C@@H](O)[C@H](C)[C@@H](O[C@@H]2O[C@H](C)[C@@H](O[C@H]3C[C@@](C)(O)[C@@H](O)[C@H](C)O3)[C@H](N(C)C)[C@H]2O)[C@@H](CC=O)C[C@@H](C)C(=O)/C=C/C(C)=C/[C@@H]1CO[C@@H]1O[C@H](C)[C@@H](O)[C@@H](OC)[C@H]1OC` [Tylosin] was tested. Which “cell growth inhibition ratio” value did it give?
Answer: Its value is -5.31%.

Question: Which “cell growth inhibition ratio” value does the source give for `OC[C@@H](O)[C@@H](O)[C@H](O)[C@@H](O)CO` [D-Sorbitol] here?
Answer: The value was 9.22%.

Question: `O=C1C=C(O)c2ccccc2C1=O` [Lawsone] was tested. Which “cell growth inhibition ratio” value did it give?
Answer: The value was 11.6%.

Question: How did the “cell growth inhibition ratio” value turn out when `O=c1c2ccccc2oc2ccccc12` [Xanthone] was run?
Answer: Its value is 5.38%.
